According to paper PMC11335345:
These are yes or no findings as the source states them, for the method shown. In cells and extracts the contact can be indirect.

The chains behind the UniProt entries cited, without tags or fusion partners. Where a name states a change or a piece, a line headed by the entry shows the natural chain unless it says otherwise.
UniProt Q9WTX5: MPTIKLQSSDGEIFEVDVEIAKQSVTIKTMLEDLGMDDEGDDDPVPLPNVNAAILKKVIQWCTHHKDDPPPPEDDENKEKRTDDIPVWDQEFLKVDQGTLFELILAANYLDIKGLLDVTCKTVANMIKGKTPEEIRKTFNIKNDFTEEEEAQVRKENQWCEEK
UniProt Q9D417: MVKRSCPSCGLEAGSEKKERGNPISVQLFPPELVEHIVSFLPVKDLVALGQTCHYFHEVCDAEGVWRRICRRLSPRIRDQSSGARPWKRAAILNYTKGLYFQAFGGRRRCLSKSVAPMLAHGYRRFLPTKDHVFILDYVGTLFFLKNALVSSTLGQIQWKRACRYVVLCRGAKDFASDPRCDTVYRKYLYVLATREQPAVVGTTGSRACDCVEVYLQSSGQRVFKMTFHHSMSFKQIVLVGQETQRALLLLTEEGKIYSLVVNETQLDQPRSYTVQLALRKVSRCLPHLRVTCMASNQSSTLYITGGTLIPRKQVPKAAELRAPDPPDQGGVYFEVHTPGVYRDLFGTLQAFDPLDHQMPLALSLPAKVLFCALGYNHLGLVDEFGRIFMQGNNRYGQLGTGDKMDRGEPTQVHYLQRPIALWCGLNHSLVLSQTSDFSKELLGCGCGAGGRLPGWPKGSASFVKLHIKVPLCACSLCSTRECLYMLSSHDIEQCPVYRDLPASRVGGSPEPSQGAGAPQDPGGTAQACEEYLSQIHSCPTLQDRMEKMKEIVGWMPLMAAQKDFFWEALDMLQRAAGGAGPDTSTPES

Target: SKP1 tagged with 1D4 (mouse) (UniProt Q9WTX5)
Assay: co-IP; Fbxo24 (WT or ΔF)-FLAG co-expressed with Skp1-1D4 in HEK293T cells; 1% Triton X-100 lysis buffer (50 mM Tris-HCl pH 7.4, 150 mM NaCl); IP with anti-1D4 or anti-FLAG antibody on Protein G magnetic beads, 1 hr at 4°C; immunoblotting

Question: How did the binding turn out when “FBXO24 tagged with 3×FLAG, without the F-box domain (ΔF) (from UniProt Q9D417)” was run?
Answer: The binding was “no binding”.
